For one experiment, the target named is myc-tagged DLL1 (UniProt O00548). Briefly: co-IP; tagged proteins co-transfected into HEK293T cells for 72 h; cell lysates precipitated with anti-myc or anti-Flag beads followed by immunoblotting; input and IgG as controls.
Another experiment deals with JAG2-Myc (UniProt Q9Y219). The description is as above.
For experiment [1], the target named is JAG2 (mouse spleen tissue) (mouse (endogenous in spleen tissue)) (UniProt Q9QYE5). Briefly: co-IP; mouse spleen tissue; antibody overnight at 4 °C, protein A/G beads, Western blot.

Sequences of proteins named here, by UniProt entry; tags and fusion partners are left off. Residues count along the entry.
UniProt O00548, residues 18-723: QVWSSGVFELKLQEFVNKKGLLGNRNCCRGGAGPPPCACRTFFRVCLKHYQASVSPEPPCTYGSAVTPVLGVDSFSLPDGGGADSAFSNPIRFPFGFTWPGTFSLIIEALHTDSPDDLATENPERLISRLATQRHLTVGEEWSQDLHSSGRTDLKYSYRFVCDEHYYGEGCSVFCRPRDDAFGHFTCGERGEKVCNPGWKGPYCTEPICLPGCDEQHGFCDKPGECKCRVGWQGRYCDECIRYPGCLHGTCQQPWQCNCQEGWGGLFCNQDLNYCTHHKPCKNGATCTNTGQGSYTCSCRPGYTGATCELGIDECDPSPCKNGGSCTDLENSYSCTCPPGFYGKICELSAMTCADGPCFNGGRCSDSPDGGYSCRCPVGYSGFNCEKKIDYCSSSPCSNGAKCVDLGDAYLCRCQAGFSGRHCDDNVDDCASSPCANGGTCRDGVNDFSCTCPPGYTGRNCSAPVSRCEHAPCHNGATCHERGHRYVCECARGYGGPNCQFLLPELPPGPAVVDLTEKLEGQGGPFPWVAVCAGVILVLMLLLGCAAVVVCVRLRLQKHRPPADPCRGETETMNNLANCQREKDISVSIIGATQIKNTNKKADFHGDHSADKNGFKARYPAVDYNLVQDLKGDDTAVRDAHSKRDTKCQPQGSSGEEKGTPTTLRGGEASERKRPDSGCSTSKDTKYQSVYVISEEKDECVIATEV
UniProt Q9Y219, residues 24-1238: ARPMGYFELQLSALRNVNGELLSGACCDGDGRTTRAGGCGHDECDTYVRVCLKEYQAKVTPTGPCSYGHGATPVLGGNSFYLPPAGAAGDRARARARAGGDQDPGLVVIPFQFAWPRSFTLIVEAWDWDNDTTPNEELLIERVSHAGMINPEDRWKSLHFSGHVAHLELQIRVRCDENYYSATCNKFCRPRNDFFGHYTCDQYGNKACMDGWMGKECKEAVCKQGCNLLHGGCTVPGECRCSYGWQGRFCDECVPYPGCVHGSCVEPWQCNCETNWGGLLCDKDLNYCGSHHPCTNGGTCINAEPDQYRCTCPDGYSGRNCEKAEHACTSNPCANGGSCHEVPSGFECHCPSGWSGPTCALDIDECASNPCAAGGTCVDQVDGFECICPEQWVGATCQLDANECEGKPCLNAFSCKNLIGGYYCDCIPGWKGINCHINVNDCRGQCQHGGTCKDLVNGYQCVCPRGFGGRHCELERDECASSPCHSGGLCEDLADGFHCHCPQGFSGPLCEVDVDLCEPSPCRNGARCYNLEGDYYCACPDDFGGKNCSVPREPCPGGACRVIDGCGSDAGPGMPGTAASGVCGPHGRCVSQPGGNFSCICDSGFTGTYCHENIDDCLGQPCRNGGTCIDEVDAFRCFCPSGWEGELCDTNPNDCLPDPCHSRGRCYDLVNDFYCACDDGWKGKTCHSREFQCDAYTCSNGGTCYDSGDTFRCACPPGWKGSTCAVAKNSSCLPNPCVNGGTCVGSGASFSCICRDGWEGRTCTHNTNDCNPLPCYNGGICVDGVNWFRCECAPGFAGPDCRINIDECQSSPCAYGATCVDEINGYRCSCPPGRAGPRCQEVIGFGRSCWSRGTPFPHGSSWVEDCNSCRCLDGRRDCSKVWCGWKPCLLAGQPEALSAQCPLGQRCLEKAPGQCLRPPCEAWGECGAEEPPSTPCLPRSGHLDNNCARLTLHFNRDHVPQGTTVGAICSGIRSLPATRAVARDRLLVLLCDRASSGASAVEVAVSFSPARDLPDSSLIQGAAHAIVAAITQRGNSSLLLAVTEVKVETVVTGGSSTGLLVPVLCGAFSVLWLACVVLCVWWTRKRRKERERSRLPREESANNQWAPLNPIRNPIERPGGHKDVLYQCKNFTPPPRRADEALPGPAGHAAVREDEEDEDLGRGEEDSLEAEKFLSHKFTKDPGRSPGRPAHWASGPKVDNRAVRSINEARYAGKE
UniProt Q9QYE5, residues 24-1247: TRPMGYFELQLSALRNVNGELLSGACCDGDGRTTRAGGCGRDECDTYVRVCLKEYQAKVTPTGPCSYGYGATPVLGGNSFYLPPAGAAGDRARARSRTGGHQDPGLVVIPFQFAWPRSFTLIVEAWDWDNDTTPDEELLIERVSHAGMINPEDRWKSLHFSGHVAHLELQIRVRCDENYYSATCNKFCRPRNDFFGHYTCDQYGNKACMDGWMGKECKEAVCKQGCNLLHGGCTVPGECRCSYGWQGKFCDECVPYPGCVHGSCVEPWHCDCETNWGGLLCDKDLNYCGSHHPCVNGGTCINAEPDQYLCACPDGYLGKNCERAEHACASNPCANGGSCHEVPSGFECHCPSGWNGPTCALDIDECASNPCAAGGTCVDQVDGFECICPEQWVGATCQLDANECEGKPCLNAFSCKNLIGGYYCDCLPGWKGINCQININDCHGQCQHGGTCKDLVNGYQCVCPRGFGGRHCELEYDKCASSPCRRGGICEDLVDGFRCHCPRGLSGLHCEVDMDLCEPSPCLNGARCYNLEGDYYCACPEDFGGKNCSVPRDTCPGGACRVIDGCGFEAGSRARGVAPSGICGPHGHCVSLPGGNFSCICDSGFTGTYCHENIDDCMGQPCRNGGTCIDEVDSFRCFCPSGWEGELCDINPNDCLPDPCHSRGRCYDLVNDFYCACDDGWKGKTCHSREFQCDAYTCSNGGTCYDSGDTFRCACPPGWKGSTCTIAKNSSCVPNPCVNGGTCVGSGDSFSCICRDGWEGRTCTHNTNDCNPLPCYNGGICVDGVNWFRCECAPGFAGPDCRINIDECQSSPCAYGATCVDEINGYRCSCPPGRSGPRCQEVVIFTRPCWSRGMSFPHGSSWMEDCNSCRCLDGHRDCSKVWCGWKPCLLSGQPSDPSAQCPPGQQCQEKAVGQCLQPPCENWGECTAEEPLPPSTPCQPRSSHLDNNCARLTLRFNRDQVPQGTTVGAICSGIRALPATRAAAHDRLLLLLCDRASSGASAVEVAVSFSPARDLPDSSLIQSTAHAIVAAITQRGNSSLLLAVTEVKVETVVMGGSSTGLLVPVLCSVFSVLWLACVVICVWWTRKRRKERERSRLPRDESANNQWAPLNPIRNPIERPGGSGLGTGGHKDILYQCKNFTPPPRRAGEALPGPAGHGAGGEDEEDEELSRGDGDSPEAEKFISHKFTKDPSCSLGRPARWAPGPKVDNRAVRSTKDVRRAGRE
UniProt P51784: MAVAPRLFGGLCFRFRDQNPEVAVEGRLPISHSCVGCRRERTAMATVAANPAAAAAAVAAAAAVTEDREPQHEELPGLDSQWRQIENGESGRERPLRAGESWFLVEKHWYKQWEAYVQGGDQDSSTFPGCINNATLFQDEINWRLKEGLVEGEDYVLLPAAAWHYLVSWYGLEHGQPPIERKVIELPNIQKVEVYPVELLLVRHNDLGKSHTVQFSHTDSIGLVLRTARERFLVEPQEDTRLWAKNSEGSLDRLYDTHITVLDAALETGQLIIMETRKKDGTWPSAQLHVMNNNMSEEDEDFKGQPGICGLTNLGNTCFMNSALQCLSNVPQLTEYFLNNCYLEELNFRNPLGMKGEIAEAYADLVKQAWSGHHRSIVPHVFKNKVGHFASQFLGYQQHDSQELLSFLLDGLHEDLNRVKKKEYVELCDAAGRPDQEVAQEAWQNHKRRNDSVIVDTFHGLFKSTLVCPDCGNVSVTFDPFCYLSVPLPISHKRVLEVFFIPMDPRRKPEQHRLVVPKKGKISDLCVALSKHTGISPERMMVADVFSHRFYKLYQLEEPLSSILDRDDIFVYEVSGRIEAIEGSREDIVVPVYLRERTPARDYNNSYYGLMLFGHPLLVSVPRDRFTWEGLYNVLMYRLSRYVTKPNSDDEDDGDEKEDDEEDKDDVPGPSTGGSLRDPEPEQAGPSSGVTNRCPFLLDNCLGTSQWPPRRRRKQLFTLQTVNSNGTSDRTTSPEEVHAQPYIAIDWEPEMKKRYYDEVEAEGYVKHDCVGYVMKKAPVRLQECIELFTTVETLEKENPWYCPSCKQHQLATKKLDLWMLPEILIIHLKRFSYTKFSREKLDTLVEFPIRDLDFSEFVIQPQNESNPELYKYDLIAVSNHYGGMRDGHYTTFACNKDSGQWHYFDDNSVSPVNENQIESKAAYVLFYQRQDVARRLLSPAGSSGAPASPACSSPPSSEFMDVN
UniProt Q99K46: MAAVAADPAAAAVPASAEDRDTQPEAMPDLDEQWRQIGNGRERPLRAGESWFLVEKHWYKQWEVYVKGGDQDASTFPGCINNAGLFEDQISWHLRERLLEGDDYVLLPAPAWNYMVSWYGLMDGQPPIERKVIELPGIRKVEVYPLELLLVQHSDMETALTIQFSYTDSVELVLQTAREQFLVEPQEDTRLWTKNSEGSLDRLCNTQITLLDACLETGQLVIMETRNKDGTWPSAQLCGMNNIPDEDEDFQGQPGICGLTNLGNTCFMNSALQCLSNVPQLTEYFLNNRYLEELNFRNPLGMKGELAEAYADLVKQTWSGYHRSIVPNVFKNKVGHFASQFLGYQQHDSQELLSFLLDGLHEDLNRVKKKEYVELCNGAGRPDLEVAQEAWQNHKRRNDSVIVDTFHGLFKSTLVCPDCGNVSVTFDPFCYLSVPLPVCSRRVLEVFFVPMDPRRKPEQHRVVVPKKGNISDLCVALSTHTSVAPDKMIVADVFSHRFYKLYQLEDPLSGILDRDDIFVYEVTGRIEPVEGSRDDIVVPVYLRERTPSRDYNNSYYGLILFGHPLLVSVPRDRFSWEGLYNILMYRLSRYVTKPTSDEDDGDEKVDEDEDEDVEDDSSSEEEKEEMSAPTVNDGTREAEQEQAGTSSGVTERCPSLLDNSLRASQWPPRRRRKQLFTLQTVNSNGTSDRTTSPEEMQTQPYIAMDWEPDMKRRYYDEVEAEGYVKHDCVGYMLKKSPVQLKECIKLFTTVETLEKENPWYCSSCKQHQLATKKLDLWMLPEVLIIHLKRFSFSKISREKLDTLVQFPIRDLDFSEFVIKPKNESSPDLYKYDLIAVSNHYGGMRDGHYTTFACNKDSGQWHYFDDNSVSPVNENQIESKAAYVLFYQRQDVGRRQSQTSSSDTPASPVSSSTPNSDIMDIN

These are yes or no findings as the source states them, for the method shown. In cells and extracts the contact can be indirect. Some entries that bind do so weakly or less than the wild type.

As for “Flag-tagged Usp11 (from UniProt P51784 1-963) (enzyme)”, the binding entry in the experiment with myc-tagged DLL1 and in the experiment with JAG2-Myc was “binds” each time.

For the substance “Usp11 (mouse spleen tissue) (from UniProt Q99K46 1-921) (enzyme)”, in experiment [1], the binding result was “binds”.

Source of the values: paper PMC11794699.
